Results taken from patent US10280179B2, “Spiroquinoxaline derivatives as inhibitors of non-apoptotic regulated cell-death” (Helmholtz Zentrum Munchen—Deutches Forschungszentrum Fur …, priority 2013, dated 2019).

Test system: Pfa1 cells
Experiment: Cellular toxicity, same assay as Example B.4 without TAM (Example B.5)
Type: cell-based, mouse
Conditions: TC50 divided by IC50 from Example B.4
Excerpt: Cellular Toxicity of Compounds of the Invention
An estimate of the toxicity for compounds of the invention was obtained by using the same assay as described in Example B.4, but without the addition of TAM. […] Such TC50 values obtained for certain compounds disclosed herein, together with an approximate therapeutic window (estimated by dividing each TC50 by the corresponding IC50 determined from example B.4) are shown in Table 3.

| Structure (SMILES) | Therapeutic Window (approx.. fold) [fold] |
| --- | --- |
| Clc1ccccc1CNC1=Nc2ccccc2NC12CCCCC2 [C-1] | >100 |
| Clc1cccc(CNC2=Nc3ccccc3NC23CCCCC3)c1 [C-2] | >100 |
| Clc1ccc(CNC2=Nc3ccccc3NC23CCCCC3)cc1 [C-3] | >200 |
| Fc1cccc(CNC2=Nc3ccccc3NC23CCCCC3)c1 [C-5] | >50 |
| Cc1cccc(CNC2=Nc3ccccc3NC23CCCCC3)c1 [C-11] | >20 |
| FC(F)(F)c1cccc(CNC2=Nc3ccccc3NC23CCCCC3)c1 [C-23] | >100 |
| COc1cccc(CNC2=Nc3ccccc3NC23CCCCC3)c1 [C-47] | >50 |
| Fc1cc(Cl)ccc1CNC1=Nc2ccccc2NC12CCCCC2 [C-61] | >100 |
| Clc1cccc(CCNC2=Nc3ccccc3NC23CCCCC3)c1 [C-79] | >10 |
| CC1CCC2(CC1)Nc1ccccc1N=C2NCc1ccccc1Cl (stereo not drawn) [C-91] | >100 |
| CC(=O)NC1CCC2(CC1)Nc1ccccc1N=C2NCc1cccc(Cl)c1 (stereo not drawn) [C-111] | >10 |
| Fc1cc2c(cc1F)NC1(CCCCC1)C(NCc1cccc(Cl)c1)=N2 [C-137] | >100 |
| Clc1ccccc1CNC1=Nc2ccccc2NC12CCCCCC2 [C-205] | >200 |
| Clc1cccc(CNC2=Nc3ccccc3NC23CCCCCCC3)c1 [C-206] | >10 |
| c1ccc(CNC2=Nc3ccccc3NC23CCCCCC3)cc1 [C-214] | >20 |
| c1ccc(CNC2=Nc3ccccc3NC23CCCCC3)cc1 [C-215] | >50 |
| Clc1cccc(CNC2=Nc3ccccc3NC23CCCCCC3)c1 [C-216] | >100 |
| Clc1cc2c(cc1Cl)NC1(CCCCC1)C(NCc1ccccc1)=N2 [C-217] | >500 |
| Cc1cc2c(cc1C)NC1(CCCCC1)C(NCc1ccccc1)=N2 [C-218] | >200 |

| Structure (SMILES) | Therapeutic Window (approx.. fold) [fold] |
| --- | --- |
| c1ccc(CNC2=Nc3ccccc3NC23CCCC3)cc1 [C-219] | >20 |
| Clc1ccc(CNC2=Nc3ccccc3NC23CCCCCC3)cc1 [C-220] | >50 |
| c1ccc(CCCNC2=Nc3ccccc3NC23CCCCC3)cc1 [C-221] | >10 |
| Fc1cccc(F)c1CNC1=Nc2ccccc2NC12CCCCC2 [C-222] | >200 |
| c1ccc(CNC2=Nc3cc4c(cc3NC23CCCCC3)OCCO4)cc1 [C-223] | >200 |
| COc1cccc(CNC2=Nc3ccccc3NC23CCCCCC3)c1 [C-224] | >50 |
| Cc1cc(C)cc(CNC2=Nc3ccccc3NC23CCCCC3)c1 [C-225] | >20 |
| c1ccc(CCNC2=Nc3ccccc3NC23CCCCC3)cc1 [C-226] | >10 |
| Clc1cccc(CNC2=Nc3cc4c(cc3NC23CCCCC3)OCCO4)c1 [C-227] | >1000 |
| Clc1ccc(CNC2=Nc3ccccc3NC23CCCCC3)cc1Cl [C-228] | >500 |
| c1ccc(C(CNC2=Nc3ccccc3NC23CCCCC3)c2ccccc2)cc1 [C-229] | >10 |
| Clc1ccc(CNC2=Nc3ccccc3NC23CCCCC3)c(Cl)c1 [C-230] | >200 |
| Fc1ccc(CNC2=Nc3ccccc3NC23CCCCC3)c(F)c1 [C-231] | >50 |
| c1ccc(CCCCNC2=Nc3ccccc3NC23CCCCC3)cc1 [C-232] | >20 |
| CC(CCc1ccccc1)NC1=Nc2ccccc2NC12CCCCC2 (stereo not drawn) [C-233] | >20 |
| Clc1cccc(CNC2=Nc3cc(Cl)c(Cl)cc3NC23CCCCCC3)c1 [C-234] | >100 |
| Clc1cc2c(cc1Cl)NC1(CCCCCC1)C(NCc1ccccc1)=N2 [C-235] | >50 |
| c1ccc(CNC2=Nc3ccccc3NC23CCCCCCC3)cc1 [C-236] | >50 |
| Clc1cc2c(cc1Cl)NC1(CCCCCCC1)C(NCc1ccccc1)=N2 [C-237] | >50 |

| Structure (SMILES) | Therapeutic Window (approx.. fold) [fold] |
| --- | --- |
| Fc1cc2c(cc1F)NC1(CCCCC1)C(NCc1ccccc1)=N2 [C-238] | >100 |
| Cc1cc2c(cc1C)NC1(CCCCCC1)C(NCc1ccccc1)=N2 [C-239] | >50 |
| Fc1cccc(F)c1CNC1=Nc2cc(Cl)c(Cl)cc2NC12CCCCC2 [C-240] | >20 |
| Cc1cc2c(cc1C)NC1(CCCCCCC1)C(NCc1ccccc1)=N2 [C-241] | >20 |
| Fc1ccc(CNC2=Nc3ccccc3NC23CCCCCC3)c(F)c1 [C-242] | >10 |
| Clc1cc2c(cc1Cl)NC1(CCCCCC1)C(NCc1ccccc1Cl)=N2 [C-243] | >20 |
| CC(NC1=Nc2ccccc2NC12CCCCC2)c1ccccc1 (stereo not drawn) [C-244] | >10 |
| CC(=O)NC1CCC2(CC1)Nc1ccccc1N=C2NCc1ccccc1 (stereo not drawn) [C-249] | >20 |
| CC1CCC2(CC1)Nc1ccccc1N=C2NCc1ccccc1 (stereo not drawn) [C-252] | >10 |
| CC1(C)CCC2(CC1)Nc1ccccc1N=C2NCc1ccccc1 [C-253] | >10 |
| FC(F)(F)c1cccc2c1N=C(NCc1ccccc1)C1(CCCCC1)N2 [C-254] | >20 |
| Cc1cc2c(cc1C)NC1(CCCCCC1)C(NCc1cccc(Cl)c1)=N2 [C-255] | >50 |
| FC1(F)Oc2cc3c(cc2O1)NC1(CCCCC1)C(NCc1ccccc1)=N3 [C-256] | >200 |
| NC1CCC2(CC1)Nc1ccccc1N=C2NCc1ccccc1 (stereo not drawn) [C-257] | >20 |
| Clc1ccc2c(c1)N=C(NCc1ccccc1)C1(CCCCC1)N2 [C-258] | >50 |
| FC(F)(F)c1ccc2c(c1)N=C(NCc1ccccc1)C1(CCCCC1)N2 [C-259] | >20 |
| FC(F)(F)c1cccc(CNC2=Nc3cc(Cl)c(Cl)cc3NC23CCCCCC3)c1 [C-260] | >50 |
| FC(F)(F)c1cccc(CNC2=Nc3ccccc3NC23CCCCCC3)c1 [C-261] | >20 |
| Cc1cc(C)cc(CNC2=Nc3cc(Cl)c(Cl)cc3NC23CCCCCC3)c1 [C-262] | >20 |
